{"source": "PubChem BioAssay AID1224830 (NIAID, 2016)", "purpose": "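Host factors that control LPS-induced TNF expression in human macrophages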 (primary screen)", "system": "human THP-1 monocytic leukaemia cells, TNF dual-luciferase reporter clone, PMA-differentiated to macrophage-like cells", "reagents": "siRNA pool against human genes, 50 nM", "timing": "LPS for 4 h, given about 3 days after siRNA transfection", "challenge": "bacterial LPS (TLR4 ligand), 10 ng/ml", "measured": "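Ratio of firefly to renilla light, scaled to the plate median and expressed as a robust z-score per replicate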", "reading the numbers": "TNF reporter robust z-score: higher = stronger TNF reporter response to LPS", "rule for the call": "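a well is active when its z-score exceeds 2.8 or falls below -1.5; control wells carry no call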", "note": "Shown is an unselected part of about 18,000 reagents. About 2,900 of all reagents (16%) count as active. 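Calls are made per well; low scores hint the gene aids the LPS response, high scores that it dampens it.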 Unmarked entries are inactive. Repeated entries: four replicate wells of each siRNA pool."}
{"target": "CAPZA2 (capping actin protein of muscle Z-line subunit alpha 2)", "PubChem SID": "SID315447697", "TNF reporter robust z-score": 0.95}
{"target": "CAPZA2 (capping actin protein of muscle Z-line subunit alpha 2)", "PubChem SID": "SID315447697", "TNF reporter robust z-score": 2.76}
{"target": "CAPZA2 (capping actin protein of muscle Z-line subunit alpha 2)", "PubChem SID": "SID315447697", "TNF reporter robust z-score": 1.75}
{"target": "GEM (GTP binding protein overexpressed in skeletal muscle)", "PubChem SID": "SID315448877", "TNF reporter robust z-score": -0.65}
{"target": "GEM (GTP binding protein overexpressed in skeletal muscle)", "PubChem SID": "SID315448877", "TNF reporter robust z-score": -0.69}
{"target": "GEM (GTP binding protein overexpressed in skeletal muscle)", "PubChem SID": "SID315448877", "TNF reporter robust z-score": "-2.01 (active)"}
{"target": "GEM (GTP binding protein overexpressed in skeletal muscle)", "PubChem SID": "SID315448877", "TNF reporter robust z-score": -0.06}
{"target": "DKK3 (dickkopf Wnt signaling pathway inhibitor 3)", "PubChem SID": "SID315455931", "TNF reporter robust z-score": -0.57}
{"target": "DKK3 (dickkopf Wnt signaling pathway inhibitor 3)", "PubChem SID": "SID315455931", "TNF reporter robust z-score": 2.33}
{"target": "DKK3 (dickkopf Wnt signaling pathway inhibitor 3)", "PubChem SID": "SID315455931", "TNF reporter robust z-score": -0.49}
{"target": "DKK3 (dickkopf Wnt signaling pathway inhibitor 3)", "PubChem SID": "SID315455931", "TNF reporter robust z-score": -0.73}
{"target": "H3C14 (H3 clustered histone 14)", "PubChem SID": "SID315461731", "TNF reporter robust z-score": -1.49}
{"target": "H3C14 (H3 clustered histone 14)", "PubChem SID": "SID315461731", "TNF reporter robust z-score": "-1.77 (active)"}
{"target": "H3C14 (H3 clustered histone 14)", "PubChem SID": "SID315461731", "TNF reporter robust z-score": "-1.52 (active)"}
{"target": "H3C14 (H3 clustered histone 14)", "PubChem SID": "SID315461731", "TNF reporter robust z-score": -1.31}
{"target": "CACFD1 (calcium channel flower domain containing 1)", "PubChem SID": "SID315454594", "TNF reporter robust z-score": 1.42}
{"target": "CACFD1 (calcium channel flower domain containing 1)", "PubChem SID": "SID315454594", "TNF reporter robust z-score": 0.47}
{"target": "CACFD1 (calcium channel flower domain containing 1)", "PubChem SID": "SID315454594", "TNF reporter robust z-score": 0}
{"target": "CACFD1 (calcium channel flower domain containing 1)", "PubChem SID": "SID315454594", "TNF reporter robust z-score": 1.28}
{"target": "AGPAT1 (1-acylglycerol-3-phosphate O-acyltransferase 1)", "PubChem SID": "SID315454184", "TNF reporter robust z-score": -0.42}
{"target": "AGPAT1 (1-acylglycerol-3-phosphate O-acyltransferase 1)", "PubChem SID": "SID315454184", "TNF reporter robust z-score": -0.07}
{"target": "AGPAT1 (1-acylglycerol-3-phosphate O-acyltransferase 1)", "PubChem SID": "SID315454184", "TNF reporter robust z-score": -0.33}
{"target": "AGPAT1 (1-acylglycerol-3-phosphate O-acyltransferase 1)", "PubChem SID": "SID315454184", "TNF reporter robust z-score": -0.01}
{"target": "SGPP2 (sphingosine-1-phosphate phosphatase 2)", "PubChem SID": "SID315461859", "TNF reporter robust z-score": -1.37}
{"target": "SGPP2 (sphingosine-1-phosphate phosphatase 2)", "PubChem SID": "SID315461859", "TNF reporter robust z-score": "-1.87 (active)"}
{"target": "SGPP2 (sphingosine-1-phosphate phosphatase 2)", "PubChem SID": "SID315461859", "TNF reporter robust z-score": "-1.56 (active)"}
{"target": "SGPP2 (sphingosine-1-phosphate phosphatase 2)", "PubChem SID": "SID315461859", "TNF reporter robust z-score": -0.98}
{"target": "RAB5A (RAB5A, member RAS oncogene family)", "PubChem SID": "SID315451011", "TNF reporter robust z-score": -1.01}
{"target": "RAB5A (RAB5A, member RAS oncogene family)", "PubChem SID": "SID315451011", "TNF reporter robust z-score": -0.5}
{"target": "RAB5A (RAB5A, member RAS oncogene family)", "PubChem SID": "SID315451011", "TNF reporter robust z-score": -0.96}
{"target": "RAB5A (RAB5A, member RAS oncogene family)", "PubChem SID": "SID315451011", "TNF reporter robust z-score": -0.46}
{"target": "PIK3R1 (phosphoinositide-3-kinase regulatory subunit 1)", "PubChem SID": "SID315450593", "TNF reporter robust z-score": -0.05}
{"target": "PIK3R1 (phosphoinositide-3-kinase regulatory subunit 1)", "PubChem SID": "SID315450593", "TNF reporter robust z-score": 0.37}
{"target": "PIK3R1 (phosphoinositide-3-kinase regulatory subunit 1)", "PubChem SID": "SID315450593", "TNF reporter robust z-score": 0.16}
{"target": "PIK3R1 (phosphoinositide-3-kinase regulatory subunit 1)", "PubChem SID": "SID315450593", "TNF reporter robust z-score": 2.23}
{"target": "GALNT17 (polypeptide N-acetylgalactosaminyltransferase 17)", "PubChem SID": "SID315458916", "TNF reporter robust z-score": 1.5}
{"target": "GALNT17 (polypeptide N-acetylgalactosaminyltransferase 17)", "PubChem SID": "SID315458916", "TNF reporter robust z-score": 0.63}
{"target": "GALNT17 (polypeptide N-acetylgalactosaminyltransferase 17)", "PubChem SID": "SID315458916", "TNF reporter robust z-score": 1.13}
{"target": "GALNT17 (polypeptide N-acetylgalactosaminyltransferase 17)", "PubChem SID": "SID315458916", "TNF reporter robust z-score": "3.67 (active)"}
{"target": "CERS5 (ceramide synthase 5)", "PubChem SID": "SID315460878", "TNF reporter robust z-score": 0.75}
{"target": "CERS5 (ceramide synthase 5)", "PubChem SID": "SID315460878", "TNF reporter robust z-score": -0.05}
{"target": "CERS5 (ceramide synthase 5)", "PubChem SID": "SID315460878", "TNF reporter robust z-score": -0.46}
{"target": "CERS5 (ceramide synthase 5)", "PubChem SID": "SID315460878", "TNF reporter robust z-score": 0.2}
{"target": "MGAT4C (MGAT4 family member C)", "PubChem SID": "SID315455498", "TNF reporter robust z-score": -0.84}
{"target": "MGAT4C (MGAT4 family member C)", "PubChem SID": "SID315455498", "TNF reporter robust z-score": -0.62}
{"target": "MGAT4C (MGAT4 family member C)", "PubChem SID": "SID315455498", "TNF reporter robust z-score": -0.43}
{"target": "MGAT4C (MGAT4 family member C)", "PubChem SID": "SID315455498", "TNF reporter robust z-score": -1.19}

Records listed so far called active, once more:
{"target": "GEM (GTP binding protein overexpressed in skeletal muscle)", "PubChem SID": "SID315448877", "TNF reporter robust z-score": "-2.01 (active)"}
{"target": "H3C14 (H3 clustered histone 14)", "PubChem SID": "SID315461731", "TNF reporter robust z-score": "-1.77 (active)"}
{"target": "H3C14 (H3 clustered histone 14)", "PubChem SID": "SID315461731", "TNF reporter robust z-score": "-1.52 (active)"}
{"target": "SGPP2 (sphingosine-1-phosphate phosphatase 2)", "PubChem SID": "SID315461859", "TNF reporter robust z-score": "-1.87 (active)"}
{"target": "SGPP2 (sphingosine-1-phosphate phosphatase 2)", "PubChem SID": "SID315461859", "TNF reporter robust z-score": "-1.56 (active)"}
{"target": "GALNT17 (polypeptide N-acetylgalactosaminyltransferase 17)", "PubChem SID": "SID315458916", "TNF reporter robust z-score": "3.67 (active)"}
